Publication PMC4177678
No constants are given. Whether binding was seen depends on the method and setting. In cells and extracts the contact can be indirect.

The chains behind the UniProt entries cited, without tags or fusion partners. Residues count along the entry.
GST-WC-1 aa 1-300-6xHis (Q01371, residues 1-300): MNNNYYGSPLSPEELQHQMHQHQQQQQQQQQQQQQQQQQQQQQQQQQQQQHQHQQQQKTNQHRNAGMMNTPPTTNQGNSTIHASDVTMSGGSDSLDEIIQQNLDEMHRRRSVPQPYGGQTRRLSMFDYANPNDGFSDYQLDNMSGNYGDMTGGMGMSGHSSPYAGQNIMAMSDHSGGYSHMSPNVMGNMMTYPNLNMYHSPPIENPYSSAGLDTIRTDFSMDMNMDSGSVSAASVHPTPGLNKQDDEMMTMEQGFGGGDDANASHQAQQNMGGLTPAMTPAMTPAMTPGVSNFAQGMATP
GST-WC-1 aa 100-300-6xHis (Q01371, residues 100-300): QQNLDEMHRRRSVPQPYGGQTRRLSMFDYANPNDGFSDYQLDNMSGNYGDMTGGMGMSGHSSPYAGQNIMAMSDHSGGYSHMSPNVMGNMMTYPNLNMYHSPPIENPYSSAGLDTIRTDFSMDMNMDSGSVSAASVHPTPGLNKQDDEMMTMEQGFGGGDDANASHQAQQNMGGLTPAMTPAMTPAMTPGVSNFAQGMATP

Tests used:
[1] = target: GST-WC-1 aa 1-300-6xHis (Neurospora) (UniProt Q01371); test: pull-down; purified GST, GST-aa1-300 or GST-aa100-300 on glutathione beads incubated with 2 milligrams of cleared Neurospora lysate (SWI1 C-tagged with V5), rotated at least 2 hours, washed three times; Western blot; only the target purified
[2] = target: GST-WC-1 aa 100-300-6xHis (Neurospora) (UniProt Q01371); test: as above

binding [1]: no binding | binding [2]: no binding
B1: GATA Zn finger factor SRE (protein, UniProt Q1K8E7 1-587)
chain: MALPDDTRLMNNQTSIEGNSAPDRMALPSRPPPPTASNEPPEHESTGPVDEAASKSESGLSPNSKKAGHAAQSPSGRKKSPKIQNAQPAQSPAETVGVVNVATLGLVPSVQGHAGQVCSNCGTTHTPLWRRSPQGAIICNACGLYLKARNAARPANIRRPPSVMASNVRQAAAKLSPKKATAPLLPSNPGATYVAADQTPSGSCPGGGRCNGTGGAEGCGGCPAYNNRVSKSASLNVLKCQGAAAASSKKPQAAEGSGEEPTEMDITALHVQSQNTTVVIACQNCGTTITPLWRRDEAGHTICNACGLYYKLHGVHRPVTMKKAIIKRRKRVIPAAGGDAEIEPSEAPDSPPATSEPPMEKGTVNEDGSVNLGIRRRSVRPLTLVPEDELRRNRQASPLSSAALGQYHSSHTNQPHHGAHASLTYENRLAPIHSLALPVDRQASISPASFLSPSRKRSISAVENEPSSHNDNESHKRLSSIKSILNPMPSSEIHREVSPADQLRMQPASRSPAMSSLTPAHSPGSFSNSTVIGTPTSAPILRSASRDTHNDSERMKAERRAALEREAEMMRELLAAKERELAELGYD
